In publication PMC7156630:
No constants are given. Whether binding was seen depends on the method and setting.

Molecular target: RECK without the C-terminal segment (RECKΔC), from Expi293F cells (human) (UniProt O95980)
Test: SEC-MALS; SEC-MALLS, Superdex 200 10/300 Increase, 20 mM Tris·HCl pH 7.4, 150 mM sodium chloride, 25 °C, in triplicate; both purified

binding: no binding
B1: RECK without the C-terminal segment (RECKΔC), from Expi293F cells (domain or fragment, UniProt O95980 27-942)
chain: GLAPGSAGALCCNHSKDNQMCRDVCEQIFSSKSESRLKHLLQRAPDYCPETMVEIWNCMNSSLPGVFKKSDGWVGLGCCELAIALECRQACKQASSKNDISKVCRKEYENALFSCISRNEMGSVCCSYAGHHTNCREYCQAIFRTDSSPGPSQIKAVENYCASISPQLIHCVNNYTQSYPMRNPTDSLYCCDRAEDHACQNACKRILMSKKTEMEIVDGLIEGCKTQPLPQDPLWQCFLESSQSVHPGVTVHPPPSTGLDGAKLHCCSKANTSTCRELCTKLYSMSWGNTQSWQEFDRFCEYNPVEVSMLTCLADVREPCQLGCRNLTYCTNFNNRPTELFRSCNAQSDQGAMNDMKLWEKGSIKMPFINIPVLDIKKCQPEMWKAIACSLQIKPCHSKSRGSIICKSDCVEILKKCGDQNKFPEDHTAESICELLSPTDDLKNCIPLDTYLRPSTLGNIVEEVTHPCNPNPCPANELCEVNRKGCPSGDPCLPYFCVQGCKLGEASDFIVRQGTLIQVPSSAGEVGCYKICSCGQSGLLENCMEMHCIDLQKSCIVGGKRKSHGTSFSIDCNVCSCFAGNLVCSTRLCLSEHSSEDDRRTFTGLPCNCADQFVPVCGQNGRTYPSACIARCVGLQDHQFEFGSCMSKDPCNPNPCQKNQRCIPKPQVCLTTFDKFGCSQYECVPRQLACDQVQDPVCDTDHMEHNNLCTLYQRGKSLSYKGPCQPFCRATEPVCGHNGETYSSVCAAYSDRVAVDYYGDCQAVGVLSEHSSVAECASVKCPSLLAAGCKPIIPPGACCPLCAGMLRVLFDKEKLDTIAKVTNKKPITVLEILQKIRMHVSVPQCDVFGYFSIESEIVILIIPVDHYPKALQIEACNKEAEKIESLINSDSPTLASHVPLSALIISQVQVSSSVPSAIA
